Measurements reported in patent US20210292397A1 (LA TROBE UNIVERSITY, published 2021).
Results are given in words; binding and its absence hold for the method and conditions named. Some results given as binding are weak or reduced against the parent protein; the word gives no strength.

Sequences of proteins named here, by UniProt entry; tags and fusion partners are left off. A change or cut given only in a name is not applied to a line headed by its entry. A line that says so, or that is headed by a name, gives the form on record, which may keep a tag or linker. Residues count along the entry.
UniProt P02751: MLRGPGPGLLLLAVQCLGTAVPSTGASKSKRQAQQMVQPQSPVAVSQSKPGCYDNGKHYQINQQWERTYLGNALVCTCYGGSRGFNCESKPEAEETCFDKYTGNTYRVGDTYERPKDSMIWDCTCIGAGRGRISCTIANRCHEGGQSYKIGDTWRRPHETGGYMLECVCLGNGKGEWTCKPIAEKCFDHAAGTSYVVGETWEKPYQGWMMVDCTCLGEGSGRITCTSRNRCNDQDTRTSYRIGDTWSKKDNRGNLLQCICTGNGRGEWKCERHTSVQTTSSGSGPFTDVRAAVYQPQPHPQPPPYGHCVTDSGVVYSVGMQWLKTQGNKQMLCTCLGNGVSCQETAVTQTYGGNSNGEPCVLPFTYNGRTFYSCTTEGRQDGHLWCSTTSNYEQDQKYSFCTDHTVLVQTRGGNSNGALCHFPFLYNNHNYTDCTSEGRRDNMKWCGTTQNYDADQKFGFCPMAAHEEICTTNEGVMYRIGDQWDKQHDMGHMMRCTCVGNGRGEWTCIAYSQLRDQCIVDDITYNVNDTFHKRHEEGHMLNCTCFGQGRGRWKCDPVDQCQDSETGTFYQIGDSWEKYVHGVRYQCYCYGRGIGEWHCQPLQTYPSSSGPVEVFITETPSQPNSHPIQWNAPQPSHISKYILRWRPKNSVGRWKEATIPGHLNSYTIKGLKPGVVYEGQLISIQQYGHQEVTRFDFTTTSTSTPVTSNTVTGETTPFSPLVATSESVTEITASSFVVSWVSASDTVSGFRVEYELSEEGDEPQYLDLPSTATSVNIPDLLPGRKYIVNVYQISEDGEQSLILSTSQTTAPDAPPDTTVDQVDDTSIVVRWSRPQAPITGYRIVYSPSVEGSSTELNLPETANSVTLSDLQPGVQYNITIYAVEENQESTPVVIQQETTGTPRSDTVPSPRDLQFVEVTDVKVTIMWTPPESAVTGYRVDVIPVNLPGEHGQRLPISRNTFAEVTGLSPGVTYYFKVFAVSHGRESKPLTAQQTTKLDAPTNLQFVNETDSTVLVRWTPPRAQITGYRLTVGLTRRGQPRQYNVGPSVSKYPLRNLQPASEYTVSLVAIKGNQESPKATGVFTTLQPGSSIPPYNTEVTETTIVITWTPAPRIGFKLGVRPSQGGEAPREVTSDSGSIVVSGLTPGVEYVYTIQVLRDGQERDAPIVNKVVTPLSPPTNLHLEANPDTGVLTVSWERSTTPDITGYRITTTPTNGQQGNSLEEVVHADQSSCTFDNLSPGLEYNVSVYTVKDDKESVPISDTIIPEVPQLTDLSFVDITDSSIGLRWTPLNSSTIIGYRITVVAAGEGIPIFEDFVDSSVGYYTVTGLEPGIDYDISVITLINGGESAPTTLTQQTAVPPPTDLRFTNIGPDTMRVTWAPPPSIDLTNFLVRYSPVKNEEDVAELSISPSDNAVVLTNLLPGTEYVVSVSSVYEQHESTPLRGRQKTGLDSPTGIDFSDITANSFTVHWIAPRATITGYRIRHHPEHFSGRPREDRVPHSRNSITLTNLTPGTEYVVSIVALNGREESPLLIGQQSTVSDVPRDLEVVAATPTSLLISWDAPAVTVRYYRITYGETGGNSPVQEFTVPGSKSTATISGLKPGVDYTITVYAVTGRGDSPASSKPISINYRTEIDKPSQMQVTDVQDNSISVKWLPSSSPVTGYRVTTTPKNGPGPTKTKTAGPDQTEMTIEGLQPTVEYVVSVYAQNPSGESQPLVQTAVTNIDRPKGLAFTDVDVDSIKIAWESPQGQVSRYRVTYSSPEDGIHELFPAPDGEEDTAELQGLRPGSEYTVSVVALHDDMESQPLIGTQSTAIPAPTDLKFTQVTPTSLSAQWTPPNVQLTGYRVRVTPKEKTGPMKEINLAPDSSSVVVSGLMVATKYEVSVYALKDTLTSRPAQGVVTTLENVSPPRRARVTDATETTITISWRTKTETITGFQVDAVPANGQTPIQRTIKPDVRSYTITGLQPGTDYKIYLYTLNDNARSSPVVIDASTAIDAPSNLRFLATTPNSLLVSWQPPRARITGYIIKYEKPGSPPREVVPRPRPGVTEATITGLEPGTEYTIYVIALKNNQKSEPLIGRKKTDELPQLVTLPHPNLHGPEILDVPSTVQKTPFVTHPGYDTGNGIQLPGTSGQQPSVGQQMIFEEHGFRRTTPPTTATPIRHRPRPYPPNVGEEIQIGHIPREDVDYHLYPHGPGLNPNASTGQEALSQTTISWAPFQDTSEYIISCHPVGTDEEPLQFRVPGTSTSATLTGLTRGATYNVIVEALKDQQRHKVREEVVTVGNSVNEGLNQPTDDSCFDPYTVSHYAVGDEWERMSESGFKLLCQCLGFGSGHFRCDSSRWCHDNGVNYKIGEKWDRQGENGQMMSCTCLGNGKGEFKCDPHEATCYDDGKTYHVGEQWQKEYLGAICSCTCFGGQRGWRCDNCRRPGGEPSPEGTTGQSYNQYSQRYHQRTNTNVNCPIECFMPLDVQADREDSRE
human fibronectin: residues 32-2477 of P02751
70 kDa heparin/gelatin-binding fragment of human fibronectin (FnI1-9, FnII1-2): residues 32-608 of P02751
45 kDa gelatin-binding fragment of human fibronectin (FnI6-9, FnII1-2): residues 291-608 of P02751
120 kDa cell-binding fragment of human fibronectin (FnIII2-11) (P02751, form named): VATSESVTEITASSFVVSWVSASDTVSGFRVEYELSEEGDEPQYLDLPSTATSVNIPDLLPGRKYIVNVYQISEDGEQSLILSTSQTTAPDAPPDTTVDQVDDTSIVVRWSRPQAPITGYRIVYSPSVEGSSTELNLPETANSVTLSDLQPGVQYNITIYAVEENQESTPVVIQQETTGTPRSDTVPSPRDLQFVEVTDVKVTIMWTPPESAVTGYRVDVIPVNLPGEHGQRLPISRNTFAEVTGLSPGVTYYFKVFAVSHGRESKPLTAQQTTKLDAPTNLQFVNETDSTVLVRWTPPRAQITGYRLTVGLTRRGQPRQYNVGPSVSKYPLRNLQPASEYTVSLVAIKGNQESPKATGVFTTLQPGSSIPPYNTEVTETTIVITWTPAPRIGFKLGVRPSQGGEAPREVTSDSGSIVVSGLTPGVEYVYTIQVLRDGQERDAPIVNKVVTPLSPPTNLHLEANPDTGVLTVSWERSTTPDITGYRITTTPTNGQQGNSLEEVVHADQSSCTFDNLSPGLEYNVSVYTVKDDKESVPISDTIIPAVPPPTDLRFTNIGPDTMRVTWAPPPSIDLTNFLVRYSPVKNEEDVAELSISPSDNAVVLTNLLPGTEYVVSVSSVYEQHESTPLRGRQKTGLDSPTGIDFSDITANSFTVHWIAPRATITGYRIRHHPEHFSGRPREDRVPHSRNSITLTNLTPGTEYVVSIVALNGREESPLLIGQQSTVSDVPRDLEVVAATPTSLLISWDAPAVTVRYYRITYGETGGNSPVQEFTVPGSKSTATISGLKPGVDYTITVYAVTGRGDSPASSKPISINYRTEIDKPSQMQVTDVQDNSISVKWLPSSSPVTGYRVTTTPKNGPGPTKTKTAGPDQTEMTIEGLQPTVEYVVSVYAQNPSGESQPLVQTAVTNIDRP

Columns and labels:
[1] = target: human fibronectin (human) (UniProt P02751); assay: ELISA against fibronectin, laminin and fibrinogen
[2] = target: human fibronectin (human) (UniProt P02751); assay: ELISA of fibronectin binding, detected with a fibronectin-specific polyclonal antibody
[3] = target: 45 kDa gelatin-binding fragment of human fibronectin (FnI6-9, FnII1-2) (human) (UniProt P02751); assay: ELISA with fibronectin fragments
[4] = target: 120 kDa cell-binding fragment of human fibronectin (FnIII2-11) (human) (UniProt P02751); assay: ELISA with fibronectin fragments
[5] = target: 70 kDa heparin/gelatin-binding fragment of human fibronectin (FnI1-9, FnII1-2) (human) (UniProt P02751); assay: ELISA with fibronectin fragments
[6] = target: 45 kDa gelatin-binding fragment of human fibronectin (FnI6-9, FnII1-2) (human) (UniProt P02751); assay: ELISA of fibronectin fragments and full-length fibronectin with UpaB
[7] = target: 120 kDa cell-binding fragment of human fibronectin (FnIII2-11) (human) (UniProt P02751); assay: as above
[8] = target: human fibronectin (human) (UniProt P02751); assay: as above
[9] = target: 70 kDa heparin/gelatin-binding fragment of human fibronectin (FnI1-9, FnII1-2) (human) (UniProt P02751); assay: as above
[10] = target: human fibronectin (human) (UniProt P02751); assay: ELISA, absorbance at 405 nm, n=9, PBS as control

Measured: binding

B1: UpaB α-domain (α^UpaB) from UPEC strain CFT073 (other)
chain: TDSTVSTDPVTLNTEKTTLDQDVVINGDNKITAVTIETSDSDKDLNVTFGGHDITAASTVNQDFVEGVKVSGNKNVVINATDSTITAQGEGTYVRTAMVIDSTGDVVVNGGNFVAKNEKGSATGISLEATTGNNLTLNGTTINAQGNKSYSNGSTAIFAQKGNLLQGFDGDATDNITLADSNIINGGIETIVTAGNKTGIHTVNLNIKDGSVIGAANNKQTIYASASAQGAGSATQNLNLSVADSTIYSDVLALSESENSASTTTNVNMNVARSYWEGNAYTFNSGDKAGSDLDINLSDSSVWKGKVSGAGDASVSLQNGSVWNVTGSSTVDALAVKDSTVNITKATVNTGTFASQNGTLIVDASSENTLDISGKASGDLRVYSAGSLDLINEQTAFISTGKDSTLKATGTTEGGLYQYDLTQGADGNFYFVKNTHKASNASSVIQAMAAAPANVANLQADTL
notes: also called α^UPaB (native)
binds: all assays above
